The text below walks through data of the supplement of paper PMC10670038.

± gives the standard deviation of the averaged measurements. Shown are results outside the selection of lowest values, which stands elsewhere.

In this test the test system is TE10. Nature of the test: relative cell viability vs DMSO, compound alone (fraction); TE10 is an esophageal squamous carcinoma line; higher = less cytotoxic. The settings on record: 2 µM; 48 h. The procedure: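 TE10 ESCC cells (1,000/well, 384-well plates) were treated with Selleck bioactive library compounds at 2 uM alone for 48 h. Viability was read by CellTiter-Glo and expressed relative to DMSO wells. Two technical replicates (A, B).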
`Cc1c(C(=O)NN2CCCCC2)nn(-c2ccc(Cl)cc2Cl)c1-c1ccc(I)cc1` displayed a relative cell viability of 1.1 ± 0.028.
